In article PMC3930858:

Columns and labels:
[1] = target: T1, SnRK1.1/AKIN10 (Arabidopsis thaliana) (UniProt Q38997); assay: two-hybrid; direct test by cotransformation of GAL4 DNA-binding domain and activation domain plasmids in yeast strain Y190; growth on medium lacking Leu, Trp and His with 25 mM 3-amino-triazole, 30°C, 3 days; lacZ activity
T1 sequence: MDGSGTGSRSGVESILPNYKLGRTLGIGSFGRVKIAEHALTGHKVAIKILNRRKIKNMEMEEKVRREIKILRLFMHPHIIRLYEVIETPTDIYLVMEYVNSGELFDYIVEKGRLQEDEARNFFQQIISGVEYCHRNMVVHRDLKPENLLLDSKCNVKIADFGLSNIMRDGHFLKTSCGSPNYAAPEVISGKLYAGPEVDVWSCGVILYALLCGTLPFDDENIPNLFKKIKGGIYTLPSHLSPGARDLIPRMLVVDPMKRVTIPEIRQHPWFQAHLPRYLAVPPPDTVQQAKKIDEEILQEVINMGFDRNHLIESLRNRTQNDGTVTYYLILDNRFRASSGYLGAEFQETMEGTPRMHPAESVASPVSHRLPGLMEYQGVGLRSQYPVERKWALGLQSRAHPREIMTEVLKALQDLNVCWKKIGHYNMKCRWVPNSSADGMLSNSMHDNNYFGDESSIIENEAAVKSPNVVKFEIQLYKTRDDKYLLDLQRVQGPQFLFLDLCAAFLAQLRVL

[2] = target: T2, SnRK1.2/AKIN11 (Arabidopsis thaliana) (UniProt P92958); assay: as above
T2 sequence: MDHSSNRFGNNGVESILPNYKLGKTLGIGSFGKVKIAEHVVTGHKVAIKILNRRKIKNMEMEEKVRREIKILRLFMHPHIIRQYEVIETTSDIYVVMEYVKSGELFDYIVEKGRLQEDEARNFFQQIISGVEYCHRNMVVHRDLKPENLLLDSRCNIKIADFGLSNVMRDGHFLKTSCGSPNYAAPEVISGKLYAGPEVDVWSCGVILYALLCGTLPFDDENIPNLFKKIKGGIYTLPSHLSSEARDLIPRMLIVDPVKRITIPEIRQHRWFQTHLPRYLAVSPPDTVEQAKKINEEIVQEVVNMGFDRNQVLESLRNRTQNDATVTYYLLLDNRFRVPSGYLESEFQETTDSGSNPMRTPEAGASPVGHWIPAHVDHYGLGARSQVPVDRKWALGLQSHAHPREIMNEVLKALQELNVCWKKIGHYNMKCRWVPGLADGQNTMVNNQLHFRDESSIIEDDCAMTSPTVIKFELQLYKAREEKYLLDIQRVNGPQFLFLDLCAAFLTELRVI

[3] = target: T3, AKIN10-Venus^N (Arabidopsis thaliana) (UniProt Q38997); assay: split reporter; BiFC with Venus^N and Venus^C fusions under the CaMV35S promoter, transient expression in N. benthamiana leaves, confocal microscopy 48 h post infiltration
T3 sequence: T1 sequence

[4] = target: T4, AKIN11-Venus^N (Arabidopsis thaliana) (UniProt P92958); assay: as above
T4 sequence: T2 sequence

| Substance | binding [1] | binding [2] | binding [3] | binding [4] |
| --- | --- | --- | --- | --- |
| DUF581-8 (Arabidopsis thaliana) | binds | binds |  |  |
| DUF581-1 deletion construct comprising amino acids 138-192 (Arabidopsis thaliana) (domain or fragment) | binds |  |  |  |
| DUF581-2 (Arabidopsis thaliana) | binds | binds |  |  |
| cytosolic fructose-1,6-bisphosphatase (FBPase) (enzyme) |  |  | no binding | no binding |
| DUF581-14 (Arabidopsis thaliana) | binds | binds |  |  |
| DUF581-16 (Arabidopsis thaliana) | binds | binds |  |  |
| DUF581-13 (Arabidopsis thaliana) | binds | binds |  |  |
| DUF581-10 (Arabidopsis thaliana) | binds | binds |  |  |
| DUF581-1 (Arabidopsis thaliana) | binds | binds |  |  |
| DUF581-5 (Arabidopsis thaliana) | binds | binds |  |  |
| DUF581-17 (Arabidopsis thaliana) | binds | binds |  |  |
| DUF581-12 (Arabidopsis thaliana) | binds | binds |  |  |
| DUF581-6-Venus^C (Arabidopsis thaliana) |  |  | binds | binds |
| DUF581-6 (Arabidopsis thaliana) | binds | binds |  |  |

No constants are given. Whether binding was seen depends on the method and setting. Binding can be weak; no strength is given. For part of these data: In cells and extracts the contact can be indirect.
